# Test results reported in patent publication US20250144081A1, “METHODS FOR REDUCING ALCOHOL, DRUG, AND FOOD INTAKE” (The Scripps Research Institute, priority 2022, published 2025).
# Assays:
# [1] = tested on: C57BL/6J mice; assay: blood alcohol levels (BALs) after alcohol injection, alcohol metabolism; type: in vivo, mouse
# [2] = tested on: MeCP2^308/Y mice; assay: DID paradigm in low drinking MeCP2^308/Y mice, alcohol intake and BALs; type: in vivo, mouse; conditions: PF-543 10 mg/kg i.p., p=0.06
compound,measurement,setting,value
"CC(C)Oc1ccc(-c2nc(-c3cccc4c3CC[C@@H]4NCCO)no2)cc1C#N [ozanimod, Ozanimod (RPC1063)]",blood alcohol levels (BALs) 70 min after alcohol injection (alcohol metabolism),"[1]; ozanimod 0.1 and 0.3 mg/kg i.p., C57BL/6J mice",without altering; also recorded: not affected
Cc1cc(CS(=O)(=O)c2ccccc2)cc(OCc2ccc(CN3CCC[C@@H]3CO)cc2)c1 [PF-543],BALs at the end of the 4 h drinking session in MeCP2^308/Y mice,[2],increased; also recorded: higher
CCOc1ccc(-c2nc(-c3cccc4c3CCC4NCCO)no2)cc1OCC (stereo not drawn) [CYM-5442],alcohol metabolism (BALs after alcohol injection 3.5 g/kg),"[1]; CYM-5442 2.5 mg/kg i.p., male C57BL/6J mice, 2.5 mg/kg",did not affect; also recorded: does not alter

# Entries after “also recorded” stand apart in the source; their conditions may differ.
